These are yes or no findings as the source states them, for the method shown. In cells and extracts the contact can be indirect. Here binding means that the protein was enriched with, or labelled near, the bait; the list need not be complete.
T1: STX5 (human (endogenous in HEK293T)) (UniProt Q13190)
T1 sequence: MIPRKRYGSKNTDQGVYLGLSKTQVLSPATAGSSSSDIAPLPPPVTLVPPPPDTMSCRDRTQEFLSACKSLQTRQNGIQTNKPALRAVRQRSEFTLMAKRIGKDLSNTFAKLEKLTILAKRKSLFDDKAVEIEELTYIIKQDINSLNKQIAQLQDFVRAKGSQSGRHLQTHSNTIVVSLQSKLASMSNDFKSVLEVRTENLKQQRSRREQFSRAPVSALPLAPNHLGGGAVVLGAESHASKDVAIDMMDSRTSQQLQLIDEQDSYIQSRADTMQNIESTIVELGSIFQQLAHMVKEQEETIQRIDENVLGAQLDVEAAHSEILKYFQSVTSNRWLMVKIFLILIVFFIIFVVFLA

B1: BET1 (protein, UniProt O15155 1-118)
chain: MRRAGLGEGVPPGNYGNYGYANSGYSACEEENERLTESLRSKVTAIKSLSIEIGHEVKTQNKLLAEMDSQFDSTTGFLGKTMGKLKILSRGSQTKLLCYMMLFSLFVFFIIYWIIKLR
B2: VTI1B (protein, UniProt Q9UEU0 1-232)
chain: MASSAASSEHFEKLHEIFRGLHEDLQGVPERLLGTAGTEEKKKLIRDFDEKQQEANETLAEMEEELRYAPLSFRNPMMSKLRNYRKDLAKLHREVRSTPLTATPGGRGDMKYGIYAVENEHMNRLQSQRAMLLQGTESLNRATQSIERSHRIATETDQIGSEIIEELGEQRDQLERTKSRLVNTSENLSKSRKILRSMSRKVTTNKLLLSIIILLELAILGGLVYYKFFRSH
B3: YKT6 (protein, UniProt O15498 1-198)
chain: MKLYSLSVLYKGEAKVVLLKAAYDVSSFSFFQRSSVQEFMTFTSQLIVERSSKGTRASVKEQDYLCHVYVRNDSLAGVVIADNEYPSRVAFTLLEKVLDEFSKQVDRIDWPVGSPATIHYPALDGHLSRYQNPREADPMTKVQAELDETKIILHNTMESLLERGEKLDDLVSKSEVLGTQSKAFYKTARKQNSCCAIM

These binders were tested against T1, STX5 (human (endogenous in HEK293T)) (assay: affinity purification with mass spectrometry).

binding, binds:
B1
B2
B3
